Results reported in the supplement of paper PMC10849652.
The list shows a part of the results.

The chains behind the UniProt entries cited, without tags or fusion partners. Where a name states a change or a piece, a line headed by the entry shows the natural chain unless it says otherwise.
UniProt P33316: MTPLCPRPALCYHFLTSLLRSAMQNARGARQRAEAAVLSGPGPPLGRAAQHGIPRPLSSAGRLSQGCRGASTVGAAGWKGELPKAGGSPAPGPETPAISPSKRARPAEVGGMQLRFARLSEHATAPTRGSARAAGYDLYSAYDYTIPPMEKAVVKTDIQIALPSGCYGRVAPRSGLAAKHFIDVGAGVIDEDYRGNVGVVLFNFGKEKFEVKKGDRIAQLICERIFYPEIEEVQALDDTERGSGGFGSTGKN
UniProt Q7L8W6: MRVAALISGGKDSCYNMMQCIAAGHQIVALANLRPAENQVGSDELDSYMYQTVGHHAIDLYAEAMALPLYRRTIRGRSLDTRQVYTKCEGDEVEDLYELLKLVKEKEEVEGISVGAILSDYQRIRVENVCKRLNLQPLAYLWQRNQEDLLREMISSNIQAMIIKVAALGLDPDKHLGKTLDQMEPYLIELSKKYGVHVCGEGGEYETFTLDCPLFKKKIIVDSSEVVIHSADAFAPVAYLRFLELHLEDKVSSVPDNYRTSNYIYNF
UniProt Q96FJ2, whole entry, looked up: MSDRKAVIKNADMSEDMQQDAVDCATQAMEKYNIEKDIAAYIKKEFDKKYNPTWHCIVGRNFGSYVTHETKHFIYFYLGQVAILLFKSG
UniProt Q8IXB1: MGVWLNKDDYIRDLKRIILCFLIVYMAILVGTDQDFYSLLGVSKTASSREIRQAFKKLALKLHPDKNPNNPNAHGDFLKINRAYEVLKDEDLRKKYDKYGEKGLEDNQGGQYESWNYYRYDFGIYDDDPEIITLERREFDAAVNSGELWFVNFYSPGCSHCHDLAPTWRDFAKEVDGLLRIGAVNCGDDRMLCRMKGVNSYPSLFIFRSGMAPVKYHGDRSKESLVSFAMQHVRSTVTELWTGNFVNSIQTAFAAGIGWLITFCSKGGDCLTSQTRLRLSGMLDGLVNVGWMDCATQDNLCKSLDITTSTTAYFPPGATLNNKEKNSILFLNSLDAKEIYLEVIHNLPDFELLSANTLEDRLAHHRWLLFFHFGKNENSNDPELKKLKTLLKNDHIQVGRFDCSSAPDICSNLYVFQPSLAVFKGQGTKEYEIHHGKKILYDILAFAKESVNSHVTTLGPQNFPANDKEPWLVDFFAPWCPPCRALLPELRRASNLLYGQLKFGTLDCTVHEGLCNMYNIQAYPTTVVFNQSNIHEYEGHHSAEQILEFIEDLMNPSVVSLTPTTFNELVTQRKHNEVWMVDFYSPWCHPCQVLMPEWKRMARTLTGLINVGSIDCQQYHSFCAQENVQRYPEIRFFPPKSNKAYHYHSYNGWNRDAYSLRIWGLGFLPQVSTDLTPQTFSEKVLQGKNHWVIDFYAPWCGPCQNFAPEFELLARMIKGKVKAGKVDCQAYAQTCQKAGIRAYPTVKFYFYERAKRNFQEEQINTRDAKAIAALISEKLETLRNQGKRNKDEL
UniProt P63167, whole entry, looked up: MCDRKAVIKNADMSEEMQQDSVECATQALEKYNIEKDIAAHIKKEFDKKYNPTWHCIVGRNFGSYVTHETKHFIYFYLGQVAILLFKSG
UniProt O75061: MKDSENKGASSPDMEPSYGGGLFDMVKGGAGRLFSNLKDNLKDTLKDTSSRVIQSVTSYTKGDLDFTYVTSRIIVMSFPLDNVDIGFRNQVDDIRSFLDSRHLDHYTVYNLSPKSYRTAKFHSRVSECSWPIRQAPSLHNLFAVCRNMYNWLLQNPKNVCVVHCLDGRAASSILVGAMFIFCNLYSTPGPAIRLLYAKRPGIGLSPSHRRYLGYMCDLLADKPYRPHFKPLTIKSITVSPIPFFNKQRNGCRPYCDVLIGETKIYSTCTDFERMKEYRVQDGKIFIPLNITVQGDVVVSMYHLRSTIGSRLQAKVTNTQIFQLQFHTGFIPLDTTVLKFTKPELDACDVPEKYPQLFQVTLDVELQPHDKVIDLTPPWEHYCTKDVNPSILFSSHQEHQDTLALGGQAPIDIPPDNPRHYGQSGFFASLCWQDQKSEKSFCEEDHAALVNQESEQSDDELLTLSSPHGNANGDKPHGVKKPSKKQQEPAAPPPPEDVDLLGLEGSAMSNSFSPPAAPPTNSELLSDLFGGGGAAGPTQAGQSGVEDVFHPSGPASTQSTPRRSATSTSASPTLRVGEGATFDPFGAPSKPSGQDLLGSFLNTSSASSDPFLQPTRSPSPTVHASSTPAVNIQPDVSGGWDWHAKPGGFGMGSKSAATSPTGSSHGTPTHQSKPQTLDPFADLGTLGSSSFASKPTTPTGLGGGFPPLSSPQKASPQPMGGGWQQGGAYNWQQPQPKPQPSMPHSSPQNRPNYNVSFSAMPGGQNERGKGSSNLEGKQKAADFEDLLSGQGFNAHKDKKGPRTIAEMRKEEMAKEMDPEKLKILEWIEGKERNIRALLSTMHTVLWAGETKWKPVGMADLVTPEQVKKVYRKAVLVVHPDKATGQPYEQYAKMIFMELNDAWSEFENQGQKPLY
UniProt Q9BZQ6: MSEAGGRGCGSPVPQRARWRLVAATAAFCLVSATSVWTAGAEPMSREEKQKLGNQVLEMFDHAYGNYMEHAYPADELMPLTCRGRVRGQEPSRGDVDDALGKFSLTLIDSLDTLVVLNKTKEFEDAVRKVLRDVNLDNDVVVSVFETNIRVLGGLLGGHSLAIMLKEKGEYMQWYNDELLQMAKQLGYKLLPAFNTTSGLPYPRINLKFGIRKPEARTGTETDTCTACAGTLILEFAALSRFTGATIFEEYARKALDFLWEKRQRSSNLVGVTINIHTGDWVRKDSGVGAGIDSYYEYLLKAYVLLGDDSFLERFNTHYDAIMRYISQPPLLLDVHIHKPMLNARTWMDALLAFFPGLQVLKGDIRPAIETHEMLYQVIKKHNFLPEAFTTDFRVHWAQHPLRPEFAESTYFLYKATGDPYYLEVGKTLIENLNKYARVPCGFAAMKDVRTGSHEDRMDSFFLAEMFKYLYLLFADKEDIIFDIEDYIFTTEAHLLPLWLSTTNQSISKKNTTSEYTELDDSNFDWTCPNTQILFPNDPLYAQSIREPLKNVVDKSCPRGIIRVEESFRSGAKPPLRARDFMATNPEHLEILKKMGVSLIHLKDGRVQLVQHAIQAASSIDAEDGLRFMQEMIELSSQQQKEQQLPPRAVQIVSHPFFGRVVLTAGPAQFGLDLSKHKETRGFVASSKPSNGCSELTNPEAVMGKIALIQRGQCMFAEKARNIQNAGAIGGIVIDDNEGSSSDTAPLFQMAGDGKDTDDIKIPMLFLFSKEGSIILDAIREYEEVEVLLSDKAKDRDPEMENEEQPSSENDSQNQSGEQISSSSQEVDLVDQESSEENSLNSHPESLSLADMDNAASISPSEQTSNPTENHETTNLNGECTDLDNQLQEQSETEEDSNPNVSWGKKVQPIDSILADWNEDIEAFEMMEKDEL
UniProt O95620: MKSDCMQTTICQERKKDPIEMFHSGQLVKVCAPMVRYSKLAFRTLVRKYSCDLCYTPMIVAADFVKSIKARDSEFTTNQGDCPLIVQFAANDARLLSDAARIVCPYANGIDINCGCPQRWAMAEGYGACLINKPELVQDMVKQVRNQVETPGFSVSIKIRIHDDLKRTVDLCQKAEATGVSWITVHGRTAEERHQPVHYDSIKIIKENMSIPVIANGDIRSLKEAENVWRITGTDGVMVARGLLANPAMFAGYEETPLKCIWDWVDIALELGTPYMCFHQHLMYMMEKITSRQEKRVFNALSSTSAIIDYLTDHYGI
UniProt Q9NVH1: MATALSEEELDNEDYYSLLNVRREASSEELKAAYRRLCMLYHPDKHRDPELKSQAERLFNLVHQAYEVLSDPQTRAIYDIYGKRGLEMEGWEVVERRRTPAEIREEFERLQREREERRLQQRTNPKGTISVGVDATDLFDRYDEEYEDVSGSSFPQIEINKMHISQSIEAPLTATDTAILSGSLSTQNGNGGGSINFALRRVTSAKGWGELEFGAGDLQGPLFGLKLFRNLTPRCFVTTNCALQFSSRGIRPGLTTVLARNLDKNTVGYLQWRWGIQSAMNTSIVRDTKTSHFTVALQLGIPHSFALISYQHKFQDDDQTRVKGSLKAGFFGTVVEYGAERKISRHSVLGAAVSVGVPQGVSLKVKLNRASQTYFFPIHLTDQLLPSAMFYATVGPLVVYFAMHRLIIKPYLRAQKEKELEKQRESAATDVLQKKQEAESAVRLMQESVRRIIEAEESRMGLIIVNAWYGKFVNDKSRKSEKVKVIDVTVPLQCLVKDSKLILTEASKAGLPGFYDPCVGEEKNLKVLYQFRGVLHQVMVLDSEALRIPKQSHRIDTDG
UniProt Q9NVM6: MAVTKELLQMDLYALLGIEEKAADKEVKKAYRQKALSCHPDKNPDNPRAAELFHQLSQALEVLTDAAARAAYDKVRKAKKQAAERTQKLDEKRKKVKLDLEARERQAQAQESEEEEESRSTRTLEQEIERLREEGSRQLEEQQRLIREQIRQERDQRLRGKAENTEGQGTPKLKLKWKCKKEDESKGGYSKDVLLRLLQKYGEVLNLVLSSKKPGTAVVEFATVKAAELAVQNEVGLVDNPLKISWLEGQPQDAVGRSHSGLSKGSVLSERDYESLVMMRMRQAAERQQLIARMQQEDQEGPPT
UniProt P60981: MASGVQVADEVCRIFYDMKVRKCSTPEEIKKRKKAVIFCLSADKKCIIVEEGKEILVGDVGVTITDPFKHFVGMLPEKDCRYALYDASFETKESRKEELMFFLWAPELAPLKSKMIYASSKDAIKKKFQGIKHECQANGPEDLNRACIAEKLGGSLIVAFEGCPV
UniProt Q96EY1: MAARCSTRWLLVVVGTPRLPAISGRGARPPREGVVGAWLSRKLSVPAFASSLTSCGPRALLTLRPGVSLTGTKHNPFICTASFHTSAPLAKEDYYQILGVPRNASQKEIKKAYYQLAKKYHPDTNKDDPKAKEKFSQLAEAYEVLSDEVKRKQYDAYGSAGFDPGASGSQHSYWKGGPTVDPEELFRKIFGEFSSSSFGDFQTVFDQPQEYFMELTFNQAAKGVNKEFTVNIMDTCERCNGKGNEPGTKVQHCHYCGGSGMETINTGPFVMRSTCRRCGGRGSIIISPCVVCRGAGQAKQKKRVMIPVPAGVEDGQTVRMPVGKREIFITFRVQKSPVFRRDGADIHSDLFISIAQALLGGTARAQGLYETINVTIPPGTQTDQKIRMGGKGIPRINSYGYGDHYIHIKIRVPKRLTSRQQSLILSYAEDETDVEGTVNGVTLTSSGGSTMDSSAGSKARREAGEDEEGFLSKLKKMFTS
UniProt O00429, whole entry, looked up: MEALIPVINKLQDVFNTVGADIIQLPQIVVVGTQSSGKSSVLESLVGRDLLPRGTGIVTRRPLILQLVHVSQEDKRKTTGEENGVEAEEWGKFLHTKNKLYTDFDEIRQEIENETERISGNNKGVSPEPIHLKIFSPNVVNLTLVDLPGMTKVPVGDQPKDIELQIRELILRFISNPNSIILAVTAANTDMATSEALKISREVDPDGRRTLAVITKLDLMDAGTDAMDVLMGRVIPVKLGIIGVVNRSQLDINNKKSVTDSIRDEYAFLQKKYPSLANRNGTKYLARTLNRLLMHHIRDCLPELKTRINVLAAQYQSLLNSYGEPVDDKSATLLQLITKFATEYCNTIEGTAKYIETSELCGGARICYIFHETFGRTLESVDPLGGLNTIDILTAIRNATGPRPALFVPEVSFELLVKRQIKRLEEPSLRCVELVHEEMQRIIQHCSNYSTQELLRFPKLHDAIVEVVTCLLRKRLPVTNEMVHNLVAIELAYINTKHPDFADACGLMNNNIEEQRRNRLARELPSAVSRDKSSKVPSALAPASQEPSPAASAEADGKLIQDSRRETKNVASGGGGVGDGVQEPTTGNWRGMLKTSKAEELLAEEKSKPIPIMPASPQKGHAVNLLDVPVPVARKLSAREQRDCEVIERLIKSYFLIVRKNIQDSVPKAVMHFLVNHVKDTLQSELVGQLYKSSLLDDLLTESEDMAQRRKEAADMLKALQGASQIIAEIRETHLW
UniProt Q9NP97, whole entry, looked up: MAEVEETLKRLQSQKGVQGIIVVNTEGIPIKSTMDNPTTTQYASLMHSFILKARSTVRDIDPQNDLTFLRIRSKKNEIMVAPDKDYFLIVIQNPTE
UniProt Q9BVJ7: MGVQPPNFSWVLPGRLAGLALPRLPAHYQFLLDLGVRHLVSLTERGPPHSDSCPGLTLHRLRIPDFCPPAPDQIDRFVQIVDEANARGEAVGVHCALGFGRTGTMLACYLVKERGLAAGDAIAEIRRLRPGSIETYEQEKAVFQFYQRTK
UniProt Q9UKB3: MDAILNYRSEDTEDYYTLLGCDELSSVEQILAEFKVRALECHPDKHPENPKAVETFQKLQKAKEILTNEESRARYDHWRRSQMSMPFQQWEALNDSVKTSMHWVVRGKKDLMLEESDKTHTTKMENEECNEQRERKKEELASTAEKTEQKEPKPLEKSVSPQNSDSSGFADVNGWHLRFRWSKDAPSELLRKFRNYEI
UniProt P51452: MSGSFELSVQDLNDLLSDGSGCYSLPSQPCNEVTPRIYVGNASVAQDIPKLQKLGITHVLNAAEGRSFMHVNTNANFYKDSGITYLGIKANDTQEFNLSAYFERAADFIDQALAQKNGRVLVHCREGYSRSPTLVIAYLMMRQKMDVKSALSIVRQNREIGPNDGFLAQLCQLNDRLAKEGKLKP

Compound: CC[C@H](C)N1C=C(C2=C(C=C(C=C21)C3=CN=C(C=C3)N4CCNCC4)C(=O)NCC5=C(C=C(NC5=O)C)C)C
Assay: log2 fold change, soluble protein after heating vs DMSO (PISA); higher = thermal stabilisation; K562 cells, 10 uM, 30 min; active = over 0.2 and 3.5 SD of the protein, either way, in both replicates (recomputed)
Summary of the method: (§1)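 Soluble protein was quantified by TMTpro 16plex LC-MS/MS after channel sums were equalised. It was obtained as the supernatant after 21,000xg for 90 min from pooled aliquots of K562 cells (2×10^6 cells/mL, 10 μM compound, 30 min) heated for 3 min across 48°C-58°C and extracted in PBS with 0.5% NP-40 at 4°C. Thermal stability values are relative to control samples and come from duplicates. They are given as log2 fold changes.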

log2 fold change, inactive:
DUT (UniProt P33316) -0.006
DPH6 (UniProt Q7L8W6) 0.069
DYNLL2 (UniProt Q96FJ2) 0.017
DNAJC10 (UniProt Q8IXB1) 0.035
DYNLL1 (UniProt P63167) 0.087
DNAJC6 isoform 2 (UniProt O75061) 0.051
EDEM3 (UniProt Q9BZQ6) 0.003
DUS4L (UniProt O95620) -0.01
DNAJC11 (UniProt Q9NVH1) 0.023
DNAJC17 (UniProt Q9NVM6) 0.001

Compound: CC[C@H](C)[C@@H](C(=O)N[C@@H]([C@@H](C)O)C(=O)N[C@@H](CC(C)C)C(=O)[C@]1(CO1)C)NC(=O)[C@H]([C@@H](C)CC)N(C)C(=O)C [epoxomicin]
Assay: as above
Summary of the method: as §1

log2 fold change, inactive:
DPH2 (UniProt Q9BQC3) 0.069
DPY19L4 (UniProt Q7Z388) 0.116
DNAJC8 (UniProt O75937) 0.034
ECSIT (UniProt Q9BQ95) 0.001
EDARADD (UniProt Q8WWZ3) 0.006
DSTN (UniProt P60981) 0.005
ECI2 (UniProt O75521) -0.013
DSC2 (UniProt Q02487) -0.063
DNAJA3 (UniProt Q96EY1) -0.037
DNAJC21 isoform 3 (UniProt Q5F1R6) -0.077
DYNC1LI1 (UniProt Q9Y6G9) 0.037
DNM1L isoform 6 (UniProt O00429) 0.042
ECHS1 (UniProt P30084) -0.005
DNAJB11 (UniProt Q9UBS4) -0.003
EDEM1 (UniProt Q92611) 0.045
DYNLRB1 (UniProt Q9NP97) 0.045
DOCK11 (UniProt Q5JSL3) -0.042
DUSP23 (UniProt Q9BVJ7) 0.099
ECM1 isoform 4 (UniProt Q16610) 0.026
DPP3 (UniProt Q9NY33) -0.003
DPP9 isoform 2 (UniProt Q86TI2) -0.05
DNAJC12 (UniProt Q9UKB3) 0.052
DUSP3 (UniProt P51452) 0.038
DUT (UniProt P33316) 0.045
DPH6 (UniProt Q7L8W6) 0.049
DYNLL2 (UniProt Q96FJ2) 0.009
DNAJC10 (UniProt Q8IXB1) -0.036
DYNLL1 (UniProt P63167) -0.009
DNAJC6 isoform 2 (UniProt O75061) 0.045
EDEM3 (UniProt Q9BZQ6) -0.011
DUS4L (UniProt O95620) -0.302
DNAJC11 (UniProt Q9NVH1) 0.028
DNAJC17 (UniProt Q9NVM6) 0.003

Compound: CCn1c(C(=O)N(C2CC2)C2CC2)cc2c3c(ncn3C)c(Nc3cc(C)n(C)n3)nc21
Assay: as above
Summary of the method: as §1

log2 fold change, inactive:
DPH2 (UniProt Q9BQC3) 0.019
DPY19L4 (UniProt Q7Z388) -0.011
DNAJC8 (UniProt O75937) 0.02
ECSIT (UniProt Q9BQ95) -0.028
EDARADD (UniProt Q8WWZ3) -0.083
DSTN (UniProt P60981) 0
ECI2 (UniProt O75521) -0.029
DSC2 (UniProt Q02487) -0.129
DNAJA3 (UniProt Q96EY1) -0.036
DNAJC21 isoform 3 (UniProt Q5F1R6) -0.029
DYNC1LI1 (UniProt Q9Y6G9) 0.008
DNM1L isoform 6 (UniProt O00429) 0.026
ECHS1 (UniProt P30084) 0.003
DNAJB11 (UniProt Q9UBS4) 0.008
EDEM1 (UniProt Q92611) 0.046
DYNLRB1 (UniProt Q9NP97) 0.047
DOCK11 (UniProt Q5JSL3) -0.058
DUSP23 (UniProt Q9BVJ7) 0.031
ECM1 isoform 4 (UniProt Q16610) 0.038
DPP3 (UniProt Q9NY33) -0.01
DPP9 isoform 2 (UniProt Q86TI2) -0.013
DNAJC12 (UniProt Q9UKB3) 0.024
DUSP3 (UniProt P51452) -0.028
DUT (UniProt P33316) -0.016
DPH6 (UniProt Q7L8W6) -0.025
DYNLL2 (UniProt Q96FJ2) 0.041
DNAJC10 (UniProt Q8IXB1) 0.006
DYNLL1 (UniProt P63167) 0.003
DNAJC6 isoform 2 (UniProt O75061) 0.009
EDEM3 (UniProt Q9BZQ6) 0.029
DUS4L (UniProt O95620) 0.05
DNAJC11 (UniProt Q9NVH1) -0.004
DNAJC17 (UniProt Q9NVM6) -0.089
